Reference: PubChem BioAssay AID1259308 (NCATS, 2017)
Here is an unselected part of about 59,000 reagents. About 1,510 of them (2.6%) count as active. 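Calls use total luciferase alone and ignore viability, so some active siRNAs may act by altering cell number.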 Unmarked entries are inactive. The numbers tell different reagents against one gene apart. Not all columns of the deposit are shown.

- Purpose: 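Candidate targets for better recombinant protein yield in mammalian cells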 (primary screen)
- Cell system: human HEK293 embryonic kidney cells stably expressing firefly luciferase (HEK-CMV-Luc2-Hygro)
- Reagent: single siRNA against human genes, 0.8 pmol siRNA per well
- Duration: 72 h
- Measurement: 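Reporter luminescence and viable-cell signal on separate replicate plates, given as percent of non-targeting control and median/MAD z-scores, plus per-cell luciferase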
- Reading the numbers: total luciferase, z-score: higher = more reporter protein produced
- Call rule: 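Active when the median/MAD z-score for overall luciferase is greater than 3; a gene was taken forward for validation with new siRNAs if at least two of its three siRNAs passed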
- Calls: active = raised luciferase; inactive = no rise

TARDBP (TAR DNA binding protein) #1 | total luciferase, z-score: 0.279
TARDBP (TAR DNA binding protein) #2 | total luciferase, z-score: -1.4
TARDBP (TAR DNA binding protein) #3 | total luciferase, z-score: 1.01
HIPK4 (homeodomain interacting protein kinase 4) #1 | total luciferase, z-score: 0.649
HIPK4 (homeodomain interacting protein kinase 4) #2 | total luciferase, z-score: 0.578
HIPK4 (homeodomain interacting protein kinase 4) #3 | total luciferase, z-score: -0.361
MIMS1 (mitochondrial inner membrane structural 1) #1 | total luciferase, z-score: 0.0765
MIMS1 (mitochondrial inner membrane structural 1) #2 | total luciferase, z-score: 1.11
MIMS1 (mitochondrial inner membrane structural 1) #3 | total luciferase, z-score: -0.997
KLRD1 (killer cell lectin like receptor D1) #1 | total luciferase, z-score: -0.0633
KLRD1 (killer cell lectin like receptor D1) #2 | total luciferase, z-score: 0.0685
KLRD1 (killer cell lectin like receptor D1) #3 | total luciferase, z-score: 0.756

Reformatted: entries from further up
HIPK4 (homeodomain interacting protein kinase 4) #2
- total luciferase, z-score: 0.578

HIPK4 (homeodomain interacting protein kinase 4) #3
- total luciferase, z-score: -0.361
